This is an account of results in article PMC8001760.

Results are given in words; binding and its absence hold for the method and conditions named. Binding seen in cells or lysates may run through a third protein. A result given as binding can be weak or reduced; the word gives no strength. Sequences can lack the tags named with a protein.

The experiment concerns the target T1, Flag-mouse lipin-2 (mouse) (UniProt Q99PI5).
T1 sequence: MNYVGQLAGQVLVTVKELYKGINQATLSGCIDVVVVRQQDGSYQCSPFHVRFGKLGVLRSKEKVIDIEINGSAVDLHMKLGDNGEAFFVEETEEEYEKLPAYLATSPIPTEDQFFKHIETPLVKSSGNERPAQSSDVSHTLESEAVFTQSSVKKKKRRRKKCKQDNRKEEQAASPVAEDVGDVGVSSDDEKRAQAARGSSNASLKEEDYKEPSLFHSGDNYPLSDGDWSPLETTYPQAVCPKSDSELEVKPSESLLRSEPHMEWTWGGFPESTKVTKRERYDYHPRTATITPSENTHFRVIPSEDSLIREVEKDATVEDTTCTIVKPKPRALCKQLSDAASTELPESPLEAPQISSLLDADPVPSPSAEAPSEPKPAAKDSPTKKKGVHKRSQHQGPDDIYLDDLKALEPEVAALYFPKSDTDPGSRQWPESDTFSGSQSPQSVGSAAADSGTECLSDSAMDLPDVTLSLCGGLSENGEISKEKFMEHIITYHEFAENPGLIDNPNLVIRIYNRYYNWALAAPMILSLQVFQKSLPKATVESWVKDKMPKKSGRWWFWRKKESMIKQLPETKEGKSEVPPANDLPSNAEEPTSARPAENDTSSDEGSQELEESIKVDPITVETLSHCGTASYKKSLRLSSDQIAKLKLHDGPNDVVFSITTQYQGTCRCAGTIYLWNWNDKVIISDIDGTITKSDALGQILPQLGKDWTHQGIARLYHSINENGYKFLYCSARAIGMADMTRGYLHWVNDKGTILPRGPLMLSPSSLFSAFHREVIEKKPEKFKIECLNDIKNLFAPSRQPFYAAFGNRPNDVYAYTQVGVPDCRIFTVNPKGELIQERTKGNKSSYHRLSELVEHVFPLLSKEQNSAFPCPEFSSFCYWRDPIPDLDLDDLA
In words: co-IP; 293T cells co-transfected with Flag- and HA-tagged plasmids; anti-HA or anti-Flag beads, NP-40 lysis buffer (50 mM Tris-Cl pH 7.5, 120 mM NaCl, 0.5% NP-40), 4 °C, 4 h; immunoblot.

As for HA-NFATc1, the binding result is listed as “binds”.
